# Experimental data taken from PubChem BioAssay AID1347426 (Functional Genomics Laboratory (NCATS/FGL), 2020).
# The campaign covered roughly 31,000 sequences. About 1,400 (4.5%) were called active.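 The calls were made as follows: active = median seed-adjusted z-score above 1 or below -1; inactive = the rest.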 The list shows a part of the results.
# Assay: Novel Modifiers of Survival Motor Neuron (SMN) Protein: Gene Identification via Genome-wide siRNA Screen;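 also: luminescence tracks full-length SMN protein made from the SMN2 reporter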
# Conditions: HEK293T SMN2-luciferase reporter, siRNA knockdown, 72 h; actives lie on both sides
# How it was run: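 Genome-wide siRNA screen (10418 genes, 3 siRNAs each, 1 pmol per well) by reverse transfection in HEK293T cells stably carrying an SMN2-luciferase reporter; luminescence after 72 hours, normalized to negative-control siRNA, log10-transformed, MAD-scored.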
row,Sequence,median seed-adjusted z-score
1,AGAGCAAUGAACAAUGGAATT against EGFL8,inactive: 0.365
2,CAACCAGGCUCCACAUAAATT against APOBEC3G,inactive: 0.00539
3,GGUGGUGAAUUUGCGAGAATT against KIF27,inactive: 0.412
4,CACUAUCCUGAGUAAUUAUTT against GABRE,inactive: 0.211
5,GCCUAGAGCUAAGUACCAATT against CHUK,inactive: -0.613
6,GACCCAACCUGGUUCUGAATT against CRTAC1,inactive: 0.113
7,GAAGUUGACAUACCACCUATT against BMPR1B,inactive: 0.5
8,AAAUGUCCAAGAAUGAAUATT against AFAR3,inactive: 0.0433
9,CUAUCUCUAUGAUUGAUUATT against GSTO1,inactive: 0.188
10,CGAUGAUUACGACGAGGACTT against KCNG4,inactive: 0.666
11,CCCUUUUCCUGCACAACAATT against PLOD3,inactive: -0.258
12,GCUCGAUUAACAAAAUAUATT against SLC30A5,inactive: 0.401
13,GGUGGAAUGGUAUACUAAATT against NT5C3,inactive: -0.456
14,GAAUACCAUUUAACAUGGATT against ZNF33B,inactive: -0.279
15,GAGUGGACAUUGGACUCAATT against TBC1D9B,inactive: -0.906
16,GAACUGCAUCGGGAAACAATT against CYP4A22,inactive: -0.479
17,GCAUACAAGAAGUCACUAUTT against KRT1,inactive: -0.362
18,GGUCCUUACGAAAAUCGCATT against ATP6V1B2,inactive: 0.24
19,GGUGUAACAGGAUUGAGAATT against USP44,inactive: 0.374
20,GCCCAAACUGAGUACAACUTT against PLA2G10,active: 1.07
21,GGAUUUUACAGUUUUUGGATT against PCCB,inactive: 0.137
22,GAAAGAAGAAUAUACUGAUTT against RBBP6,inactive: -0.212
23,CUAACACCUCGGAACCCAATT against TACR1,inactive: -0.391
24,CAUUGAUGCUUGUAUUGAATT against CPEB2,inactive: -0.00928
25,AUAGUGAAAUAGAACAGUATT against BRF2,inactive: -0.00969
26,CGAGAUAACUACUUUCGGATT against RALB,inactive: -0.534
27,GGAUCAUCCAAGAUGGGAATT against NELL1,inactive: -0.466

row,Sequence,median seed-adjusted z-score
1,CGCUGAGCACGAUCCUGAATT against CENPB,inactive: 0.292
2,CAAUAUCACCUCAUUAAUATT against KCTD5,inactive: -0.748
3,CCCUUACAGUUGUCGGAUUTT against ZNF438,inactive: 0.165
4,GAACUGAUAGGAAAACAAATT against AK3L1,inactive: 0.0337
5,GGUAUUAUCCUGCUUGGUATT against XPO7,inactive: 0.546
6,GGCCUUUAGUUAUAAAGGATT against TIMM8A,inactive: 0.173
7,ACCUCGAACUCUCAAAAUUTT against NDUFV3,inactive: -0.086
8,UCCCAGCGCUGAAACUUGATT against OXT,inactive: 0.553
9,GGAAAUAGAACAUAACCAATT against HPDL,inactive: 0.483
10,CCGUCUUCAUGUUCGAGUATT against GRIN2C,inactive: -0.3
11,CCAUGUAUCUGAGUGAUCATT against ERC2,inactive: 0.172
12,GAGGUAUCAUUAUCAGUUATT against CYP4F3,inactive: -0.336
13,CCGUAGUAUUUAUAGUUAATT against GSC,inactive: 0.17
14,CCUUUACUUUCUAUAGAAATT against ZNF573,inactive: -0.169
15,GGUUCUUUCUAAUAUGGAATT against IMPA1,inactive: -0.295
16,GAGCUAUUUACAAACCGAATT against CES1,inactive: -0.536
17,GAUGAUAUGUCGUAUCGAATT against LMO7,inactive: 0.417
18,GAAUGAUGAUGCAUGCCUUTT against MS4A10,inactive: -0.24
19,CUGUCAAAGUUGCUCGAAATT against MSH6,inactive: -0.182
20,GACUCUGAGUAUAAAGUGATT against BARHL1,inactive: 0.397
21,GCACGUGAGAGGGAUGAAATT against SNW1,inactive: 0.148
22,ACAUGAUCUUGGACCUGGATT against CSNK2B,active: -1.62
23,CUGAAGAUGUUAGACAAGATT against CAMKK1,inactive: 0
24,CGCUCAGUGUCCAACAUUATT against CYP2F1,inactive: 0
25,AGACCGAUCCUGACCCUUUTT against ZNF395,inactive: -0.0986
26,CUGCCGAACUUUUAAACAATT against MCHR2,inactive: -0.658
27,GGGAUUAUUUUACGGCAGATT against ABCB5,inactive: 0.495

# A few values from above:
# For median seed-adjusted z-score, CCUUUACUUUCUAUAGAAATT against ZNF573 has inactive: -0.169
# For median seed-adjusted z-score, CGCUCAGUGUCCAACAUUATT against CYP2F1 has inactive: 0
